Reference: patent publication US8142764B2, “Synthetic biofilm-inhibiting peptides” (priority 2008, dated 2012)
Values joined by “and” are separate entries in the source; they are usually repeats but may differ in a detail not shown here. Equal entries are not always repeated. Where two headings read alike, the source gives them in different places. At least one peptide structure holds a part that was inferred or is arguable (an end, a ring closure or a residue). Where no end group is shown, it is not given here.

Columns and labels:
[1] = system: P. gingivalis/S. gordonii biofilm; assay: Inhibition of P. gingivalis adherence and biofilm formation on S. gordonii (open flow cell, confocal microcolony count); assay type: cell-based, Porphyromonas gingivalis; conditions: P. gingivalis pre-incubated with peptide, streptococcal substrate; read-out: I50 for inhibition of P. gingivalis adherence and biofilm formation
Experimental: P. gingivalis adherence and biofilm formation. The adherence of intact P. gingivalis to S. gordonii cells and the subsequent formation of biofilms was carried out using an open flow system essentially as previously described by Amorin Daep et al. Infect Immun 74:5756-62 (2006) and Lamont et al. Microbiology 148:1627-36 (2002). The flow reactor comprised a Manostat Carter 4/8 cassette peristaltic pump (Fisher Scientific, Suwanee, Ga.) using 0.89 millimeter platinum-cured silicone tubing (Fisher Scientific, Suwanee, Ga.) and a BST FC 71 flow cell (Biosurface Technologies, Corp, Bozeman, Mont.). […]
P. gingivalis ATCC 33277 cells were harvested by centrifugation at 4000 rpm at 4° C. for 45 minutes, suspended in 25 ml of sterile 1×PBS, and introduced into the flow cell at a flow rate of 6 ml per hour for 2 hours at 25° C. to allow P. gingivalis to adhere and accumulate on the streptococcal substrate. […] The microcolonies were visualized and quantified by confocal microscopy as described below.
Confocal microscopy and analysis of P. gingivalis biofilms. […] The number and depth of FITC-labeled P. gingivalis microcolonies was determined from 30 to 60 randomly chosen frames using the FluoView software package provided by Olympus. Microcolony depth was determined by performing Z-plane scans from 0 μm to 30 μm above the coverglass surface. […]

[2] = Circular dichroism (CD) spectroscopy, K2D secondary structure estimate; assay type: physicochemical; conditions: 1.4 mM peptide in phosphate buffer
Experimental: Circular dichroism (CD) spectroscopy. CD experiments were carried out at 25° C. using Jasco J-810 spectropolarimeter (Jasco, Easton, Md.). A 40 μl sample of peptide at a concentration of 1.4 mM in filter sterilized 0.1 M phosphate buffer (pH=7.2) was analyzed in a 0.01 cm quartz cuvette (Starna Cells, Inc., Atascadero, Calif.) using the following parameters: sensitivity=100 mdeg, start wavelength=340 nm, end wavelength=180 nm, continuous scanning mode at 200 nm/minute, response=1 second, and bandwidth=1 nm. Nitrogen was flushed into the system at a rate of […] during each experiment. A total of 10 scans were accumulated and averaged and the appropriate blanks were subtracted from the spectra. The resulting spectra were expressed in molar ellipticity. Normalized CD data were analyzed using K2D software (on the world-wide web at embl-heidelberg.de/˜andrade/k2d.html)) to estimate α-helical, β-sheet, and random coil content.

[3] = system: existing P. gingivalis biofilm; assay: Disruption of a pre-existing P. gingivalis biofilm; assay type: cell-based, Porphyromonas gingivalis; conditions: 10 μg/ml, up to 2 hours, versus medium without BAR
[4] = system: proteolytic activity of P. gingivalis; assay type: cell-based, Porphyromonas gingivalis; conditions: highest concentration of pepstatin A; loading control R.D.=105.19
Text: Inhibition of protease activity. The proteolytic activity of P. gingivalis was inhibited using a bacterial protease inhibitor cocktail (Sigma, St. Louis, Mo.) containing the following inhibitors: 4-(2-Aminoethyl)benzenesulfonyl fluoride hydrochloride (AEBSF), N-(trans-epoxysuccinyl)-L-leucine 4 guanidinobutylamide (E-64), sodium ethylenediaminetetra-acetate (EDTA), bestatin and pepstatin A. The inhibitor cocktail was suspended in dimethylsulfoxide (DMSO) (Sigma, St. Louis, Mo.) at the concentration recommended by the manufacturer.

[5] = system: P. gingivalis/S. gordonii biofilm
[6] = system: P. gingivalis/S. gordonii biofilm; conditions: read-out: I50 previously reported for BAR; Infect Immun 74:5756-62; cited from earlier work
[7] = BAR 0.169 μM, w/5.8 mM pepstatin A
[8] = BAR 0.169 μM, w/o 5.8 mM pepstatin A
[9] = BAR 0.338 μM, w/5.8 mM pepstatin A
[10] = BAR 0.338 μM, w/o 5.8 mM pepstatin A
[11] = BAR 0.845 μM, w/5.8 mM pepstatin A
[12] = BAR 0.845 μM, w/o 5.8 mM pepstatin A
[13] = BAR 1.65 μM, w/5.8 mM pepstatin A
[14] = BAR 1.65 μM, w/o 5.8 mM pepstatin A

For LEAAPKKVQDLLKKANITVKGAFQLFS [BAR], the IC50 [1] was ~1300 nM and 1250 nM, the random coil content [2] was “approximately 48%” and the α-helix content [2] was ~7% and 10%. The α-sheet content [2] was ~45%, the “effect on microcolonies of an existing P. gingivalis biofilm” value [3] was “significant reduction of microcolonies” and the “relative density (R.D.) of remaining BAR peptide” value [4] was 111.65. For the same sequence, the Colonies [5, 7] was 150, the “Colonies/Frame (Mean +/− SEM)” value [5, 7] was 4.85 ± 0.66 and the Colonies [5, 8] was 178. For the same sequence, the “Colonies/Frame (Mean +/− SEM)” value [5, 8] was 5.74 ± 0.51, the Colonies [5, 9] was 134 and the “Colonies/Frame (Mean +/− SEM)” value [5, 9] was 3.35 ± 0.71. For the same sequence, the Colonies [5, 10] was 246, the “Colonies/Frame (Mean +/− SEM)” value [5, 10] was 4.92 ± 0.65 and the Colonies [5, 11] was 78. For the same sequence, the “Colonies/Frame (Mean +/− SEM)” value [5, 11] was 1.95 ± 0.46, the Colonies [5, 12] was 139 and the “Colonies/Frame (Mean +/− SEM)” value [5, 12] was 3.48 ± 0.54. For the same sequence, the Colonies [5, 13] was 4, the “Colonies/Frame (Mean +/− SEM)” value [5, 13] was 0.13 ± 0.06 and the Colonies [5, 14] was 11. The “Colonies/Frame (Mean +/− SEM)” value [5, 14] was 0.37 ± 0.17 and the IC50 [6] was ~1300 nM and 1300 nM.
